From publication PMC5627969

Protein sequences, listed by entry. Tags and fused reporters are not part of them. Lines headed by an entry give the natural chain unless they say otherwise; changes in a name come on top.
UniProt Q9UKC9: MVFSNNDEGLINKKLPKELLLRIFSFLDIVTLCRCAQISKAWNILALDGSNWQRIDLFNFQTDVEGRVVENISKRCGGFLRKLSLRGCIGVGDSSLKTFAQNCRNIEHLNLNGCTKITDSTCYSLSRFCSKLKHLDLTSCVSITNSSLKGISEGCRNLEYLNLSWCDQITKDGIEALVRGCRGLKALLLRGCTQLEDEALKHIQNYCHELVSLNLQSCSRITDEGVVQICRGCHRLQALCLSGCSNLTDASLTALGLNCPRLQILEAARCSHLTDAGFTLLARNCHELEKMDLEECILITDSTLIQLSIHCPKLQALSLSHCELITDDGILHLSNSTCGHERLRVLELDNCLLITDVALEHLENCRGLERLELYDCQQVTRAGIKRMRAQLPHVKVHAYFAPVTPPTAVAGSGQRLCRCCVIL
UniProt Q14573: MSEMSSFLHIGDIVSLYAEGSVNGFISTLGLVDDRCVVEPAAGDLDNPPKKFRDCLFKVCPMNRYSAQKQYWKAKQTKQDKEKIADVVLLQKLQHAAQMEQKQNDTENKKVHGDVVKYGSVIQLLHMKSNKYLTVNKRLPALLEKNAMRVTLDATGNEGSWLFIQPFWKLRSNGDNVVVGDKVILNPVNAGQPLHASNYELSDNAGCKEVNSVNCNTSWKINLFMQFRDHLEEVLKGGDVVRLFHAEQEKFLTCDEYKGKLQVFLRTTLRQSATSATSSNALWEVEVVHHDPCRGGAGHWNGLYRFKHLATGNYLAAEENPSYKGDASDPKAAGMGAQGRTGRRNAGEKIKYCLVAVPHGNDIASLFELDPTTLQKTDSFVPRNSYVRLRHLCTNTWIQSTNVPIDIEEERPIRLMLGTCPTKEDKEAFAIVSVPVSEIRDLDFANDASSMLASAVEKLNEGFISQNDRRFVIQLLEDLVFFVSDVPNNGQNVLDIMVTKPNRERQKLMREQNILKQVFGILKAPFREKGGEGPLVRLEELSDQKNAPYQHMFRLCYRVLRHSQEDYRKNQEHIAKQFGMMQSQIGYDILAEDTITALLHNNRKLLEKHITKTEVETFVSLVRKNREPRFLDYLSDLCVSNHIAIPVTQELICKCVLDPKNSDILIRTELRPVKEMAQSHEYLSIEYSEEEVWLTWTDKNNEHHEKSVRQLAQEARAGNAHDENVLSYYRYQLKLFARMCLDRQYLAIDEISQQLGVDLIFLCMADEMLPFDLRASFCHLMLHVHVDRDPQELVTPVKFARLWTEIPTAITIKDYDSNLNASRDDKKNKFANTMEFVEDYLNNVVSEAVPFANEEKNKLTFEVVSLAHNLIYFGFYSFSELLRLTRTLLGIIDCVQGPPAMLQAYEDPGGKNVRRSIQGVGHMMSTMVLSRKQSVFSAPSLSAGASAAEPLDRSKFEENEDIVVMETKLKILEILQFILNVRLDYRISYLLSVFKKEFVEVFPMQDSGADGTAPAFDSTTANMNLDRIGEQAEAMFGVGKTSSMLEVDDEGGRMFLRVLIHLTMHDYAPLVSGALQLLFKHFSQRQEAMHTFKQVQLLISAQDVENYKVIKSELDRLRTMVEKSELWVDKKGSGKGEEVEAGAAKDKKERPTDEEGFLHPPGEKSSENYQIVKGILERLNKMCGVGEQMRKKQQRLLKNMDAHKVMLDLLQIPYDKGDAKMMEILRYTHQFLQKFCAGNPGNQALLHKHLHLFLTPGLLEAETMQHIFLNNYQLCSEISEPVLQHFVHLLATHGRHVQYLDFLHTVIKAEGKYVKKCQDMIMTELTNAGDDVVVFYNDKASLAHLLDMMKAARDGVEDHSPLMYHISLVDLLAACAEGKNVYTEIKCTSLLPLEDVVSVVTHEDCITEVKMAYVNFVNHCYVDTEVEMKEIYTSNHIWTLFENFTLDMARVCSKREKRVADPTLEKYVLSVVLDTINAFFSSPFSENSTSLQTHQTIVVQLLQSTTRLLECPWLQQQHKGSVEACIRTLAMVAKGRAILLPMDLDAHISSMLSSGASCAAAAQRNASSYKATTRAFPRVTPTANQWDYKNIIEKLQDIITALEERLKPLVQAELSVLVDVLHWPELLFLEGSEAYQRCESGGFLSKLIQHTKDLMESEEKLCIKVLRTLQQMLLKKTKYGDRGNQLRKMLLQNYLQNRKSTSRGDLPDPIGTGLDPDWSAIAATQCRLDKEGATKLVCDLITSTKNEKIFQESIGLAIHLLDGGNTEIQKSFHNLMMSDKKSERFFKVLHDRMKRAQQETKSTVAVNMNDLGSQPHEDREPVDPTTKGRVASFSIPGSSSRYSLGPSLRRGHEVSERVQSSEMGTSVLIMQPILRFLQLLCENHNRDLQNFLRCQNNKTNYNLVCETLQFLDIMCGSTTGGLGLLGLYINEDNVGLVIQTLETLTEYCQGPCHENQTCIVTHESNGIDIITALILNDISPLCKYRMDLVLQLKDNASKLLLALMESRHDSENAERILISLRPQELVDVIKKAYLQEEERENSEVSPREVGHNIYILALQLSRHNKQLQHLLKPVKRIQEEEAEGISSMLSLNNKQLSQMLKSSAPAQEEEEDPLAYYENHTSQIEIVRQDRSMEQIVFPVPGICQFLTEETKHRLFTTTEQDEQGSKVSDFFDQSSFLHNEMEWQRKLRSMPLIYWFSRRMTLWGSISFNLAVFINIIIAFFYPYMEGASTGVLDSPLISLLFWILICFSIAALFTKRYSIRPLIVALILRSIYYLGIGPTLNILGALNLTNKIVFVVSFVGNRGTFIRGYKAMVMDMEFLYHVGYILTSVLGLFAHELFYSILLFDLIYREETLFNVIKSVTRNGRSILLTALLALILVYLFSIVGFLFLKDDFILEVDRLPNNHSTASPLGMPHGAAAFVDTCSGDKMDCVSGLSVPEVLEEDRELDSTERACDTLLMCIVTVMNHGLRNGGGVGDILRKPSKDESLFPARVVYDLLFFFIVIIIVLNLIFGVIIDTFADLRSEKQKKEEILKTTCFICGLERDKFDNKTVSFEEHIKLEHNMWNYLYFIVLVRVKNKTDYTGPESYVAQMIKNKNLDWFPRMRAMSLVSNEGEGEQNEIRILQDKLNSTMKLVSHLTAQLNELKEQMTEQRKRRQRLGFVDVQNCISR

Target: Flag-tagged FBXL2(ΔF-box) (human) (UniProt Q9UKC9)
Assay: co-IP; HEK293T transfected with a Flag-tagged protein; anti-Flag immunoprecipitation; endogenous partners by immunoblot; with or without MG132 for 3 h; PTEN siRNA in one panel

## IP3R3 (endogenous, HEK293T) (from UniProt Q14573 1-2671) (receptor)
  binding: binds

No constants are given. Whether binding was seen depends on the method and setting. Binding seen in cells or lysates may run through a third protein. A result given as binding can be weak or reduced; the word gives no strength.
